Data reported in patent publication US12484579B2, “Agrochemical composition and methods of preparing and using the same” (priority 2018, dated 2025).
For part of these data: At least one compound was matched to its structure with a doubt left. Some entries share one result that the patent states for a list of compounds.

Assays:
[1] = Chemical degradation of the actives on storage; assay type: physicochemical; details: after 18 weeks at 30° C.; in the OD formulation (sentence follows the results of Formulation 2)
[2] = Miscibility test (visual observation of a simple mixing of two liquids); assay type: physicochemical

Row | Structure (SMILES) | Chemical degradation [1] | Miscibility in Rhodiasolv ® ADMA 10 ([2]; Pyridate Tech. at 16.5 wt %) | Miscibility in Rhodiasolv ® IRIS ([2]; Pyridate Tech. at 16.5 wt %) | Miscibility in Rhodiasolv ® Li-Tec 2v ([2]; Pyridate Tech. at 16.5 wt %) | Miscibility in Rhodiasolv ® Polarclean ([2]; Pyridate Tech. at 16.5 wt %) | Miscibility in Rhodiasolv ® RPDE ([2]; Pyridate Tech. at 16.5 wt %) | Miscibility in Water ([2]; Pyridate Tech. at 16.5 wt % in Water) | Miscibility in the above solvents ([2]; after 40 days at room temperature and 54° C.)
1 | CS(=O)(=O)c1ccc(C(=O)C2C(=O)CCCC2=O)c([N+](=O)[O-])c1 [Mesotrione, 2-(4-methylsulfonyl-2-nitrobenzoyl)-cyclohexane-1,3-dione] | less than 5% |  |  |  |  |  |  | 
2 | CCCCCCCCSC(=O)Oc1cc(Cl)nnc1-c1ccccc1 [Pyridate Tech., (6-chloro-3-phenylpyridazin-4-yl)octylsulfanylformate] | less than 5% | Miscible | Miscible | Miscible | Miscible | Miscible | Not miscible | good miscibility
